This note sets out measurements from the supplement of paper PMC8728848.

Assay in all cases: glycan array binding signal (z-score within array); higher = stronger binding
What all share (details): glycan notation: IUPAC condensed, linker removed

Assay [1] has as its target Gal(b1-4)GlcNAc(b1-6)Gal(b1-4)GlcNAc. A digest of the protocol: (§1)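 The Consortium for Functional Glycomics database supplied 3228 glycan arrays, of which those lacking an available protein sequence were dropped. The binding signal, a within-array Z-score, was averaged across arrays of the same protein sequence and across linkers. Negative scores can be read as non-binding.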

Assay [2] deals with Gal(b1-4)GlcNAc(b1-6)GalNAc. A digest of the protocol: as §1
In assay [3] the target is Gal(b1-4)GlcNAc(b1-6)[Gal(b1-3)]GalNAc. A digest of the protocol:
as §1

Assay [4] deals with Gal(b1-4)GlcNAc(b1-6)[Gal(b1-4)GlcNAc(b1-3)]GalNAc. A digest of the protocol:
as §1

For a further assay, the target named is Gal(b1-4)GlcNAc6P. A digest of the protocol:
as §1

Another assay addresses Gal(b1-6)Gal. Summed up: as §1
Another assay has as its target Gal3S(b1-3)GalNAc. A digest of the protocol: as §1
Another assay concerns the target Gal3S(b1-3)GlcNAc. A digest of the protocol: as §1
The target of assay [5] is Gal3S(b1-3)[Fuc(a1-4)]GlcNAc. Summed up:
as §1

The target of another assay is Gal3S(b1-4)Glc. A digest of the protocol: as §1
The next assay addresses Gal3S(b1-4)Glc6S. Summed up:
as §1

A further assay addresses Gal3S(b1-4)GlcNAc. A digest of the protocol:
as §1

Assay [6] has as its target Gal3S(b1-4)[Fuc(a1-3)]Glc6S. A digest of the protocol: as §1
The target in assay [7] is Gal3S(b1-4)[Fuc(a1-3)]GlcNAc. Summed up:
as §1

Assay [8] has as its target Gal3S(b1-4)[Fuc(a1-3)]GlcNAc6S. A digest of the protocol: as §1
The target in the next assay is Gal3S4S(b1-4)GlcNAc. A digest of the protocol:
as §1

A further assay concerns the target Gal3S6S(b1-4)GlcNAc. Summed up:
as §1

In a further assay the target is Gal3S6S(b1-4)GlcNAc6S. Summed up:
as §1

Another assay has as its target Gal4S(b1-4)GlcNAc. A digest of the protocol: as §1
The next assay has as its target Gal4S6S(b1-4)GlcNAc. Summed up: as §1
A further assay has as its target Gal6P(b1-4)GlcNAc. A digest of the protocol:
as §1

The target of a further assay is Gal6S(b1-3)GlcNAc. Summed up: as §1
Another assay concerns the target Gal6S(b1-3)GlcNAc6S. A digest of the protocol: as §1

The list shows a part of the results.

B1: AT1G80310(18) (Arabidopsis thaliana), Q0WP36 (protein)
chain: METTTTPLLPGDRSRCGWLRRRLRLKNPLSSELSGAVGDLGTFIPIVLTLTLVSNLDLSTTLIFTGFYNIATGLLFDIPMPVQPMKSIAAVAVSESPHLTPSQIAAAGASTAATLLLLGATGAMSFLYNIIPLPVVRGVQLSQGLQFAFTAIKYVRFNYDTATLKPSSSPRIWLGLDGLILALAALLFIILSTGSGNDREAEDGDLAETSSNESQSRRRRLRLLSSIPSALIVFALGLVLCFIRDPSIFKDLKFGPSKFHILRISWDDWKIGFLRAAIPQIPLSVLNSVIAVCKLSNDLFDKELSATTVSISVGVMNLIGCWFGAMPVCHGAGGLAGQYRFGARSGLSVIFLGIGKLIVGLVFGNSFVRILSQFPIGILGVLLLFAGIELAMASKDMNSKEDSFIMLVCAAVSMTGSSAALGFGCGVVLYLLLKLRTLDCSSVTLFSRSSDESQVDSEAAPRDV
In the case of B1, the “glycan array binding signal (z-score)” value was -0.353 in assay [1]; 0.79 in [2]; -0.508 in [3]; 1.58 in assay [4]; -0.807 with Gal(b1-4)GlcNAc6P; 0.742 with Gal(b1-6)Gal. Further, the “glycan array binding signal (z-score)” value with Gal3S(b1-3)GalNAc was -0.821; with Gal3S(b1-3)GlcNAc it was -0.599; in [5], -0.37; in the assay with Gal3S(b1-4)Glc, -0.538; with Gal3S(b1-4)Glc6S, -0.508; with Gal3S(b1-4)GlcNAc, -0.046. The “glycan array binding signal (z-score)” value was 0.008 in [6]; 1.13 in [7]; -0.286 in [8]; 1.21 in the assay with Gal3S4S(b1-4)GlcNAc; -0.318 with Gal3S6S(b1-4)GlcNAc; 0.953 in the assay with Gal3S6S(b1-4)GlcNAc6S. Moreover, the “glycan array binding signal (z-score)” value was 0.699 with Gal4S(b1-4)GlcNAc; -0.208 with Gal4S6S(b1-4)GlcNAc; 0.119 in the assay with Gal6P(b1-4)GlcNAc; -0.548 with Gal6S(b1-3)GlcNAc; -0.805 with Gal6S(b1-3)GlcNAc6S.
